Here are results for 5 molecules from PubChem BioAssay AID218 (DTP/NCI, 2004).

The list shows only some results of the screen, not a fair sample: it covers a few groups of compounds. Other doses and runs of a compound may be missing. T/C gives the treated animals as a percentage of the vehicle group. Schedules are NCI's codes, read here as Q, the interval in days (D) or hours (H), X, the number of doses. Some entries hold several experiments; the results are listed from low to high. Some T/C values carry the count of animals alive at the toxicity check; without a count or a note in brackets, all were alive then. Some doses have a count of surviving animals in place of a T/C: the source files T/C as zero there, which appears to mark a toxic dose or a test without result, not a measured value. Counts of survivors are from the toxicity check, whose day is not always given; animals may have died later.

The test system of this test is C57BL/6 mice, Adenocarcinoma 755 sc, tumor weight T/C. Description: NCI In Vivo Anticancer Drug Screen. Data for tumor model Adenocarcinoma 755 (subcutaneous) in C57BL/6 mice. To be noted: T/C endpoint: mean tumor weight, schedule: Q01DX011 (ip), higher T/C = larger tumour; for T/C: evaluated on day 12. The protocol:
The antitumor activity of compounds was measured in mice bearing transplantable tumors. Survival or tumor size were measured and the results are expressed as the measurement made in the treated group (T) divided by the measurement made in the vehicle treated control group (C). The tumor model used in this assay is Adenocarcinoma 755 (subcutaneous) in C57BL/6 mice

Setting [1] is: dose: 1.0 mg/kg/injection, vehicle: saline.
Where [2] appears, read: dose: 2.0 mg/kg/injection, vehicle: saline.
[3] abbreviates: dose: 4.0 mg/kg/injection, vehicle: saline.
[4] abbreviates: dose: 8.0 mg/kg/injection, vehicle: saline.
Setting [5] is: dose: 16.0 mg/kg/injection, vehicle: saline.
The mark [6] stands for this setting: dose: 15.0 mg/kg/injection, vehicle: carboxymethylcellulose (CMC).

In the case of `O=C(O)Cc1ccc(N(CCCl)CCCl)cc1`, the T/C under setting [1] was 40 % of control [9 of 10 alive], the T/C under setting [2] is 25 % of control [9 of 10 alive], the T/C under setting [3] was 51 % of control and the T/C under setting [4] is 50 % of control. For the same molecule, the survivor count under setting [5] is given as 0 of 10.
For the molecule `O=C(O)CCc1ccc(N(CCCl)CCCl)cc1`, the T/C reads like this: under setting [1], 55 % of control; under setting [3], 85 % of control; under setting [4], 72 % of control; under setting [5], 73 % of control [8 of 10 alive]. Moreover, the survivor count under setting [2] is 3 of 10.
In the case of `NC(Cc1ccc(N(CCCl)CCCl)c(Cl)c1)C(=O)O` (stereo not given), the T/C runs as follows: (dose: 0.25 mg/kg/injection, vehicle: methylcellulose (MC)) 61 % of control [8 of 10 alive]; (dose: 1.0 mg/kg/injection, vehicle: methylcellulose (MC)) 72 % of control; (dose: 2.0 mg/kg/injection, vehicle: methylcellulose (MC)) 10 % of control [8 of 10 alive]. Under “dose: 0.5 mg/kg/injection, vehicle: methylcellulose (MC)”, the survivor count was 6 of 10.
As for `O=P1(N(CCCl)CCCl)OCC2CCCN21` (stereo not given), the T/C (dose: 7.5 mg/kg/injection, vehicle: saline) is 101 % of control; the T/C (dose: 15.0 mg/kg/injection, vehicle: saline) is 87 % of control; the T/C (dose: 30.0 mg/kg/injection, vehicle: saline) was 127 % of control; the T/C (dose: 31.3 mg/kg/injection, vehicle: saline) was 201 % of control; the T/C (dose: 62.5 mg/kg/injection, vehicle: saline) is 121 % of control; the T/C (dose: 125.0 mg/kg/injection, vehicle: saline) was 107 % of control [9 of 10 alive]. The T/C (dose: 250.0 mg/kg/injection, vehicle: saline) was 46 % of control [8 of 10 alive]. Moreover, under “dose: 500.0 mg/kg/injection, vehicle: saline”, the survivor count is reported as 0 of 10.
As for `CN(N=O)C(=N)N[N+](=O)[O-]`, the T/C (dose: 2.5 mg/kg/injection, vehicle: carboxymethylcellulose (CMC)) was 53 % of control; the T/C (dose: 5.0 mg/kg/injection, vehicle: carboxymethylcellulose (CMC)) was 47 and 132 % of control; the T/C (dose: 7.5 mg/kg/injection, vehicle: carboxymethylcellulose (CMC)) is 52 % of control; the T/C (dose: 10.0 mg/kg/injection, vehicle: carboxymethylcellulose (CMC)) was 35 and 80 % of control; the T/C under setting [6] was 30 % of control [9 of 10 alive]. In addition, the survivor count is 2 of 10 under setting [6]; 0 of 10 (dose: 20.0 mg/kg/injection, vehicle: carboxymethylcellulose (CMC)); 0 of 10 and 1 of 10 (dose: 25.0 mg/kg/injection, vehicle: carboxymethylcellulose (CMC)).
